# Results published in the supplement of paper PMC8728848.
# This is one part of the list.
# B1: ArathEULS3 TAP (Arabidopsis thaliana) (protein)
# chain: IDENLYFQGGSMDEKTTGWRGGHVVEGLAGELEQLRARLEHHPQGQREPGGGGSLEITSLYKKAGFMEHHHQHHRHHQRDDGEDDRQSFGVPPPHVDAPPQPHGLYQSQPHFDPYAPTPQAPAPYRSETQFEPHAPPPYRSEPYFETPAPPPSFGHVSHVGHQSPNESYPPEHHRYGGYQQPSNSLLESHGDHSGVTHVAHHSSNQPQSSSGVYHKPDENRLPDNLAGLAGRATVKVYSKAEPNYNLTIRDGKVILAPADPSDEAQHWYKDEKYSTKVKDADGHPCFALVNKATGEAMKHSVGATHPVHLIRYVPDKLDESVLWTESKDFGDGYRTIRMVNNTRLNVDAYHGDSKSGGVRDGTTIVLWDWNKGDNQLWKIFPF
# What was measured:
# Assay in all cases: glycan array binding signal (z-score within array); higher = stronger binding
# Conditions in all cases: glycan notation: IUPAC condensed, linker removed
# [1] = target: Neu5Ac(a2-3)Gal(b1-4)GlcNAc(b1-6)GalNAc
# Outline: (§1)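 Glycan array data came from 3228 arrays in the Consortium for Functional Glycomics database, and only arrays with an available protein sequence were kept. Glycan names were put into IUPAC-condensed notation, and columns mapping to the same glycan were averaged. The binding signal is a within-array Z-score, averaged across arrays of one protein sequence run at different concentrations or buffers and across linkers. A negative Z-score can be read as non-binding.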
# [2] = target: Neu5Ac(a2-3)Gal(b1-4)GlcNAc(b1-6)[Gal(b1-3)]GalNAc
# Outline: as §1
# [3] = target: Neu5Ac(a2-3)Gal(b1-4)GlcNAc(b1-6)[Neu5Ac(a2-3)Gal(b1-3)]GalNAc
# Outline: as §1
# [4] = target: Neu5Ac(a2-3)Gal(b1-4)GlcNAc6S
# Outline: as §1
# [5] = target: Neu5Ac(a2-3)Gal(b1-4)[Fuc(a1-3)]GlcNAc
# Outline: as §1
# [6] = target: Neu5Ac(a2-3)Gal(b1-4)[Fuc(a1-3)]GlcNAc(b1-2)Man
# Outline: as §1
# [7] = target: Neu5Ac(a2-3)Gal(b1-4)[Fuc(a1-3)]GlcNAc(b1-3)Gal
# Outline: as §1
# [8] = target: Neu5Ac(a2-3)Gal(b1-4)[Fuc(a1-3)]GlcNAc(b1-3)Gal(b1-4)GlcNAc
# Outline: as §1
# [9] = target: Neu5Ac(a2-3)Gal(b1-4)[Fuc(a1-3)]GlcNAc(b1-3)Gal(b1-4)[Fuc(a1-3)]GlcNAc(b1-3)Gal(b1-4)[Fuc(a1-3)]GlcNAc
# Outline: as §1
# [10] = target: Neu5Ac(a2-3)Gal(b1-4)[Fuc(a1-3)]GlcNAc(b1-3)GalNAc
# Outline: as §1
# [11] = target: Neu5Ac(a2-3)Gal(b1-4)[Fuc(a1-3)]GlcNAc(b1-6)[Gal(b1-3)]GalNAc
# Outline: as §1
# [12] = target: Neu5Ac(a2-3)Gal(b1-4)[Fuc(a1-3)]GlcNAc(b1-6)[Neu5Ac(a2-3)Gal(b1-3)]GalNAc
# Outline: as §1
# [13] = target: Neu5Ac(a2-3)Gal(b1-4)[Fuc(a1-3)]GlcNAc6S
# Outline: as §1
# [14] = target: Neu5Ac(a2-3)Gal6S(b1-4)GlcNAc
# Outline: as §1
# [15] = target: Neu5Ac(a2-3)Gal6S(b1-4)[Fuc(a1-3)]GlcNAc
# Outline: as §1
# Neu5Ac(a2-3)GalNAc = target: Neu5Ac(a2-3)GalNAc
# Outline: as §1
# [16] = target: Neu5Ac(a2-3)GalNAc(b1-4)GlcNAc
# Outline: as §1
# [17] = target: Neu5Ac(a2-3)[GalNAc(b1-4)]Gal(b1-4)Glc
# Outline: as §1
# [18] = target: Neu5Ac(a2-3)[GalNAc(b1-4)]Gal(b1-4)GlcNAc
# Outline: as §1
# [19] = target: Neu5Ac(a2-3)[GalNAc(b1-4)]Gal(b1-4)GlcNAc(b1-3)GalNAc
# Outline: as §1
# [20] = target: Neu5Ac(a2-3)[Neu5Ac(a2-6)]GalNAc
# Outline: as §1
# Neu5Ac(a2-6)Gal = target: Neu5Ac(a2-6)Gal
# Outline: as §1
# [21] = target: Neu5Ac(a2-6)Gal(b1-3)GlcNAc(b1-3)[Gal(b1-4)GlcNAc(b1-6)]Gal(b1-4)Glc
# Outline: as §1
# Neu5Ac(a2-6)Gal(b1-4)Glc = target: Neu5Ac(a2-6)Gal(b1-4)Glc
# Outline: as §1
# [22] = target: Neu5Ac(a2-6)Gal(b1-4)GlcNAc
# Outline: as §1
# [23] = target: Neu5Ac(a2-6)Gal(b1-4)GlcNAc(b1-2)Man
# Outline: as §1
# [24] = target: Neu5Ac(a2-6)Gal(b1-4)GlcNAc(b1-2)Man(a1-3)Man(b1-4)GlcNAc(b1-4)GlcNAc
# Outline: as §1
# [25] = target: Neu5Ac(a2-6)Gal(b1-4)GlcNAc(b1-2)Man(a1-3)[Gal(b1-4)GlcNAc(b1-2)Man(a1-6)]Man(b1-4)GlcNAc(b1-4)GlcNAc
# Outline: as §1
# [26] = target: Neu5Ac(a2-6)Gal(b1-4)GlcNAc(b1-2)Man(a1-3)[GlcNAc(b1-2)Man(a1-6)]Man(b1-4)GlcNAc(b1-4)GlcNAc
# Outline: as §1
# [27] = target: Neu5Ac(a2-6)Gal(b1-4)GlcNAc(b1-2)Man(a1-3)[GlcNAc(b1-4)][Neu5Ac(a2-6)Gal(b1-4)GlcNAc(b1-2)Man(a1-6)]Man(b1-4)GlcNAc(b1-4)GlcNAc
# Outline: as §1
# [28] = target: Neu5Ac(a2-6)Gal(b1-4)GlcNAc(b1-2)Man(a1-3)[Man(a1-6)]Man(b1-4)GlcNAc(b1-4)GlcNAc
# Outline: as §1
# [29] = target: Neu5Ac(a2-6)Gal(b1-4)GlcNAc(b1-2)Man(a1-3)[Neu5Ac(a2-3)Gal(b1-4)GlcNAc(b1-2)Man(a1-6)]Man(b1-4)GlcNAc(b1-4)GlcNAc
# Outline: as §1
# [30] = target: Neu5Ac(a2-6)Gal(b1-4)GlcNAc(b1-2)Man(a1-3)[Neu5Ac(a2-6)Gal(b1-4)GlcNAc(b1-2)Man(a1-6)]Man(b1-4)GlcNAc(b1-4)GlcNAc
# Outline: as §1
# [31] = target: Neu5Ac(a2-6)Gal(b1-4)GlcNAc(b1-2)Man(a1-3)[Neu5Ac(a2-6)Gal(b1-4)GlcNAc(b1-2)Man(a1-6)]Man(b1-4)GlcNAc(b1-4)[Fuc(a1-6)]GlcNAc
# Outline: as §1
# [32] = target: Neu5Ac(a2-6)Gal(b1-4)GlcNAc(b1-2)Man(a1-6)Man(b1-4)GlcNAc(b1-4)GlcNAc
# Outline: as §1
# [33] = target: Neu5Ac(a2-6)Gal(b1-4)GlcNAc(b1-2)Man(a1-6)[Gal(b1-4)GlcNAc(b1-2)Man(a1-3)]Man(b1-4)GlcNAc(b1-4)GlcNAc
# Outline: as §1
# [34] = target: Neu5Ac(a2-6)Gal(b1-4)GlcNAc(b1-2)Man(a1-6)[GlcNAc(b1-2)Man(a1-3)]Man(b1-4)GlcNAc(b1-4)GlcNAc
# Outline: as §1
# [35] = target: Neu5Ac(a2-6)Gal(b1-4)GlcNAc(b1-2)Man(a1-6)[Man(a1-3)]Man(b1-4)GlcNAc(b1-4)GlcNAc
# Outline: as §1
# [36] = target: Neu5Ac(a2-6)Gal(b1-4)GlcNAc(b1-2)[Neu5Ac(a2-6)Gal(b1-4)GlcNAc(b1-4)]Man(a1-3)[GlcNAc(b1-4)][Neu5Ac(a2-6)Gal(b1-4)GlcNAc(b1-2)[Neu5Ac(a2-6)Gal(b1-4)GlcNAc(b1-6)]Man(a1-6)]Man(b1-4)GlcNAc(b1-4)GlcNAc
# Outline: as §1
# [37] = target: Neu5Ac(a2-6)Gal(b1-4)GlcNAc(b1-2)[Neu5Ac(a2-6)Gal(b1-4)GlcNAc(b1-4)]Man(a1-3)[GlcNAc(b1-4)][Neu5Ac(a2-6)Gal(b1-4)GlcNAc(b1-4)Man(a1-6)]Man(b1-4)GlcNAc(b1-4)GlcNAc
# Outline: as §1
# [38] = target: Neu5Ac(a2-6)Gal(b1-4)GlcNAc(b1-2)[Neu5Ac(a2-6)Gal(b1-4)GlcNAc(b1-6)]Man(a1-6)[Neu5Ac(a2-6)Gal(b1-4)GlcNAc(b1-2)Man(a1-3)][GlcNAc(b1-4)]Man(b1-4)GlcNAc(b1-4)GlcNAc
# Outline: as §1
# [39] = target: Neu5Ac(a2-6)Gal(b1-4)GlcNAc(b1-3)Gal(b1-3)GlcNAc
# Outline: as §1
# [40] = target: Neu5Ac(a2-6)Gal(b1-4)GlcNAc(b1-3)Gal(b1-4)GlcNAc
# Outline: as §1
# [41] = target: Neu5Ac(a2-6)Gal(b1-4)GlcNAc(b1-3)Gal(b1-4)GlcNAc(b1-2)Man(a1-3)[Neu5Ac(a2-6)Gal(b1-4)GlcNAc(b1-3)Gal(b1-4)GlcNAc(b1-2)Man(a1-6)]GalNAc
# Outline: as §1
# [42] = target: Neu5Ac(a2-6)Gal(b1-4)GlcNAc(b1-3)Gal(b1-4)GlcNAc(b1-3)Gal(b1-4)GlcNAc
# Outline: as §1
# [43] = target: Neu5Ac(a2-6)Gal(b1-4)GlcNAc(b1-3)Gal(b1-4)GlcNAc(b1-3)Gal(b1-4)GlcNAc(b1-2)Man(a1-3)[Neu5Ac(a2-6)Gal(b1-4)GlcNAc(b1-3)Gal(b1-4)GlcNAc(b1-3)Gal(b1-4)GlcNAc(b1-2)Man(a1-6)]GalNAc
# Outline: as §1
binder,measurement,setting,value
B1,glycan array binding signal (z-score),[1],0.426
same,glycan array binding signal (z-score),[2],0.09
same,glycan array binding signal (z-score),[3],-1.05
same,glycan array binding signal (z-score),[4],-0.296
same,glycan array binding signal (z-score),[5],-0.386
same,glycan array binding signal (z-score),[6],0.573
same,glycan array binding signal (z-score),[7],-0.37
same,glycan array binding signal (z-score),[8],2.91
same,glycan array binding signal (z-score),[9],0.061
same,glycan array binding signal (z-score),[10],1.63
same,glycan array binding signal (z-score),[11],-0.527
same,glycan array binding signal (z-score),[12],-0.792
same,glycan array binding signal (z-score),[13],-0.75
same,glycan array binding signal (z-score),[14],-1.36
same,glycan array binding signal (z-score),[15],-1.64
same,glycan array binding signal (z-score),Neu5Ac(a2-3)GalNAc,0.618
same,glycan array binding signal (z-score),[16],-1.09
same,glycan array binding signal (z-score),[17],0.447
same,glycan array binding signal (z-score),[18],-1.12
same,glycan array binding signal (z-score),[19],0.557
same,glycan array binding signal (z-score),[20],-0.14
same,glycan array binding signal (z-score),Neu5Ac(a2-6)Gal,-0.304
same,glycan array binding signal (z-score),[21],-1.27
same,glycan array binding signal (z-score),Neu5Ac(a2-6)Gal(b1-4)Glc,0.93
same,glycan array binding signal (z-score),[22],-0.612
same,glycan array binding signal (z-score),[23],0.021
same,glycan array binding signal (z-score),[24],-0.281
same,glycan array binding signal (z-score),[25],-0.678
same,glycan array binding signal (z-score),[26],-0.353
same,glycan array binding signal (z-score),[27],-0.049
same,glycan array binding signal (z-score),[28],0.811
same,glycan array binding signal (z-score),[29],-1.17
same,glycan array binding signal (z-score),[30],0.502
same,glycan array binding signal (z-score),[31],-0.134
same,glycan array binding signal (z-score),[32],-0.879
same,glycan array binding signal (z-score),[33],-0.777
same,glycan array binding signal (z-score),[34],-0.597
same,glycan array binding signal (z-score),[35],0.433
same,glycan array binding signal (z-score),[36],0.386
same,glycan array binding signal (z-score),[37],-0.279
same,glycan array binding signal (z-score),[38],-0.647
same,glycan array binding signal (z-score),[39],-1.4
same,glycan array binding signal (z-score),[40],-0.709
same,glycan array binding signal (z-score),[41],0.829
same,glycan array binding signal (z-score),[42],-1.21
same,glycan array binding signal (z-score),[43],0.399

# At a glance, some entries already given:
binder,measurement,setting,value
B1,glycan array binding signal (z-score),Neu5Ac(a2-6)Gal(b1-4)Glc,0.93
same,glycan array binding signal (z-score),[22],-0.612
same,glycan array binding signal (z-score),[23],0.021
